Measurements taken from PubChem BioAssay (NCATS).
The shares of active, inactive and inconclusive entries below differ from those in the screen. A potency beside an inconclusive call is a rough fit, not a confirmed value. The source made the active and inactive calls. Calls follow the shape of the dose curve; as a rule, active = well fitted activation curve with a large enough effect; inconclusive = small, poorly fitted or top-dose-only effect, or another doubt; inactive = no such curve, though single readings can be large or run the other way.

The compounds below were run against Rap guanine nucleotide exchange factor 3 (Homo sapiens) (UniProt O95398) (assay: Counterscreen qHTS for agonist of cAMP-regulated guanine nucleotide exchange factor 3 (EPAC1) (AID 1645889; also: nearly all actives have a fitted effect of over 40% in size; as to activation: % of control where 0% means no effect)). Settings: EPAC1 Rap1B-BODIPY-GDP exchange, fluorescence; activation: at 154 µM (top of the series) unless noted.
How it was run: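 Measured: fluorescence of BODIPY-GDP bound to Rap1B, which falls as exchange proceeds. Conditions include 50 uM competing GDP, 5 and 30 min reads, and a later cAMP challenge for antagonist detection.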
Potency is read from the fitted curve at half-maximal effect.

Compound | activation | Potency
CC1=NN(c2nc(-c3ccc(Cl)cc3)cs2)C(=O)C1 | inactive: 11% [at 30.8 µM] | 
O=C(NS(=O)(=O)c1ccc2ccc(S(=O)(=O)NCCSc3ccccc3)cc2c1)c1cccc2ccccc12 |  | inactive
N#C/C(=C\c1ccc(C(=O)O)cc1)c1nc2sc3c(c2c(=O)[nH]1)CCCC3 |  | inconclusive: 3.55 µM [activator, partial curve]
N=C1/C(=C\c2ccc(OC(=O)c3ccccc3Cl)cc2)C(=O)N=C2SC(N3CCOCC3)=NN12 |  | inactive
CSCCC(NC(=O)c1ccc(Cl)cc1)C(=O)OCC(=O)N1CCCC1=O (stereo not drawn) | inconclusive: 35.1% [activator] [at 30.8 µM] | 
Cc1ccc(C(C)C)cc1OCC(=O)NC1CCCCCCC1 | inactive: -2.78% [at 30.8 µM] | 
N#Cc1c(NC(=O)c2ccccc2)sc2c1CCCCC2 |  | inconclusive: 0.0126 µM [activator, full curve]
CC1=CC2=NC(=O)/C(=C\c3cccn3CCOc3ccc(C)c(C)c3)C(=N)N2O1 |  | inconclusive: 14.1 µM [activator, full curve, poor fit]
O=C(NCc1ccc(F)cc1)c1ccc2c(=O)n3c(nc2c1)CCCCC3 |  | inconclusive: 0.0224 µM [activator, full curve, poor fit]
CC(CCc1ccccc1)NC(=O)C1CCN(C(=O)c2sccc2-n2cccc2)CC1 (stereo not drawn) | inconclusive: 17.4% [activator] | 
O=C(OCC(=O)N1CCN(S(=O)(=O)c2ccc(Cl)cc2)CC1)c1cccc(OC(F)F)c1 |  | inconclusive: 14.1 µM [activator, single point]
CC1CN(C(=O)CCC(=O)NCc2cccc(Cl)c2)c2ccccc2S1 (stereo not drawn) |  | inconclusive: 44.7 µM [activator, partial curve, poor fit]
CC(=O)C(Sc1nnnn1-c1ccc(O)cc1)c1ccccc1 (stereo not drawn) |  | inconclusive: 17.8 µM [activator, single point]
CCOc1ccc(CCNc2ncnc3onc(-c4ccc(Cl)cc4)c23)cc1OCC |  | inconclusive: 20 µM [activator, partial curve, poor fit]
O=C(/C=C/c1ccco1)NC(=S)Nc1cccc([N+](=O)[O-])c1 |  | inconclusive: 7.08 µM [activator, partial curve, poor fit]
COC(=O)c1ccc2nc(-c3ccc(F)cc3)c(Cc3ccccc3)n2c1 | inactive: 19.8% [at 30.8 µM] | 
Cc1ccc(S(=O)(=O)NCCC(=O)N2CC(C)OC(C)C2)cc1 (stereo not drawn) |  | inactive
CC1CN(S(=O)(=O)c2cccc(C(=O)Nc3ccccc3N3CCOCC3)c2)CC(C)O1 (stereo not drawn) |  | inconclusive: 0.0079 µM [activator, full curve, poor fit]

3 structures out of the list, arranged by molecular weight, smallest number first.
Compound | activation | Potency
N#Cc1c(NC(=O)c2ccccc2)sc2c1CCCCC2 |  | inconclusive: 0.0126 µM [activator, full curve]
O=C(/C=C/c1ccco1)NC(=S)Nc1cccc([N+](=O)[O-])c1 |  | inconclusive: 7.08 µM [activator, partial curve, poor fit]
O=C(NS(=O)(=O)c1ccc2ccc(S(=O)(=O)NCCSc3ccccc3)cc2c1)c1cccc2ccccc12 |  | inactive
